Measurements reported in PubChem BioAssay AID743454 (Peter MacCallum Cancer Centre, 2014).
Aim: 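Search for knock-downs that restore vorinostat killing in resistant colon cancer cells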 (primary screen). Cell system: human HCT116-VR colon cancer cells, selected for vorinostat resistance. Reagent: siRNA pool against human genes, 40 nM siRNA pool. Time to read-out: vorinostat for 24 h, read-out about 72 h after transfection. Conditions: vorinostat at 2.5 µM final. Detection: 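Two measures, CellTiter-Fluor viability and luminescent caspase 3/7 activity, each as fold change against same-plate mock wells, mean of duplicates, then screen-wide robust z-score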. Scale: viability robust z-score: higher = more viable cells than screen typical; caspase robust z-score: higher = more caspase 3/7 activity than screen typical. Hit rule: 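a knock-down is a hit when classed RV1 or RV2 for lowered viability, or CA1 or CA2 for caspase activation; those lethal without drug were dropped; hits were retested singly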.
In all, the deposit lists about 18,000 reagents; this is a part drawn at random. Over the whole deposit, 450 (2.5%) got an active call. 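Single biological run; no consistent viability z cut-off exists, so the class columns, not z-scores, define the calls.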

gene symbol | viability hit class | caspase hit class | viability robust z-score | caspase robust z-score | outcome
PPIC (peptidylprolyl isomerase C) | no change | no change | -0.18 | -0.5 | inactive
PRAC1 (PRAC1 small nuclear protein) | no change | no change | 1.23 | -0.75 | inactive
DCLK2 (doublecortin like kinase 2) | no change | no change | -2.78 | 0.72 | inactive
LSMEM2 (leucine rich single-pass membrane protein 2) | no change | no change | -1.25 | -0.02 | inactive
DGUOK (deoxyguanosine kinase) | no change | no change | -1.25 | -1.14 | inactive
GPR179 (G protein-coupled receptor 179) | no change | no change | 0.34 | -1.12 | inactive
PPEF1 (protein phosphatase with EF-hand domain 1) | no change | no change | -1.75 | 2.08 | inactive
IFNA5 (interferon alpha 5) | no change | no change | -0.7 | -0.38 | inactive
LIF (LIF interleukin 6 family cytokine) | no change | no change | -1.32 | 4.74 | inactive
WDR18 (WD repeat domain 18) | no change | no change | -0.93 | 1.82 | inactive
P4HTM (prolyl 4-hydroxylase, transmembrane) | no change | no change | -0.49 | 0.64 | inactive
CTDSP2 (CTD small phosphatase 2) | no change | no change | 0.34 | 0.2 | inactive
PARD6A (par-6 family cell polarity regulator alpha) | no change | no change | -0.24 | 0.1 | inactive
SAG (S-antigen visual arrestin) | no change | no change | 0.29 | 0.67 | inactive
PDE2A (phosphodiesterase 2A) | no change | no change | 0.7 | -0.92 | inactive
CSH2 (chorionic somatomammotropin hormone 2) | no change | no change | 1.18 | 0.84 | inactive
STK32A (serine/threonine kinase 32A) | no change | no change | -0.43 | -0.64 | inactive
CACNG7 (calcium voltage-gated channel auxiliary subunit gamma 7) | no change | no change | -0.68 | -1.08 | inactive
CLEC7A (C-type lectin domain containing 7A) | no change | no change | 0.3 | -0.49 | inactive
COPG1 (coat protein complex I subunit gamma 1) | no change | no change | -2.71 | 0.14 | inactive
MPO (myeloperoxidase) | no change | no change | 1.03 | -0.08 | inactive
DOCK7 (dedicator of cytokinesis 7) | no change | no change | 0.62 | 0.15 | inactive
R3HDM4 (R3H domain containing 4) | no change | no change | 0.02 | 1.48 | inactive
ADCY4 (adenylate cyclase 4) | no change | no change | 0.29 | -1.12 | inactive
RRP9 | no change | no change | 0.34 | -0.67 | inactive
IL7R (interleukin 7 receptor) | no change | no change | 0.74 | -0.16 | inactive
CAMSAP1 (calmodulin regulated spectrin associated protein 1) | no change | no change | 1.42 | -0.93 | inactive
CLEC16A (C-type lectin domain containing 16A) | no change | no change | 0.27 | 4.33 | inactive
OR2AK2 (olfactory receptor family 2 subfamily AK member 2) | no change | no change | 1.09 | -0.7 | inactive
CA1 (carbonic anhydrase 1) | no change | no change | -0.34 | 0.55 | inactive
PTGES (prostaglandin E synthase) | no change | no change | -0.4 | -0.88 | inactive
LCTL (lactase like) | no change | no change | 1.88 | -0.64 | inactive
EIF4G3 (eukaryotic translation initiation factor 4 gamma 3) | no change | no change | -0.63 | -1.3 | inactive
MED10 (mediator complex subunit 10) | no change | no change | -1.47 | -0.52 | inactive
HIBADH (3-hydroxyisobutyrate dehydrogenase) | no change | no change | 0.16 | 2.58 | inactive
TYR (tyrosinase) | no change | no change | -0.41 | 0.26 | inactive
CTTNBP2NL (CTTNBP2 N-terminal like) | no change | no change | 0.47 | 2.24 | inactive
TMA7 (translation machinery associated 7 homolog) | no change | no change | -0.92 | -0.82 | inactive
ITCH (itchy E3 ubiquitin protein ligase) | no change | no change | -2.4 | -0.5 | inactive
SPTBN4 (spectrin beta, non-erythrocytic 4) | no change | no change | -0.11 | 2.68 | inactive
FKBP6 (FKBP prolyl isomerase family member 6 (inactive)) | no change | no change | -0.72 | -0.76 | inactive
C21orf91 (chromosome 21 open reading frame 91) | no change | no change | -0.36 | -0.31 | inactive
RAPH1 | no change | no change | -0.6 | -0.52 | inactive
ZNF433 (zinc finger protein 433) | no change | no change | 1.14 | -0.43 | inactive
SEMA7A (semaphorin 7A (JohnMiltonHagen blood group)) | no change | no change | 0.59 | -0.24 | inactive
PCDHGC4 (protocadherin gamma subfamily C, 4) | no change | no change | 0.93 | -0.96 | inactive
ACOX1 (acyl-CoA oxidase 1) | no change | no change | 1.51 | -0.36 | inactive
DOK1 (docking protein 1) | no change | no change | 1.12 | -0.88 | inactive
IGSF3 (immunoglobulin superfamily member 3) | no change | no change | 1.27 | 0.12 | inactive
KRT5 (keratin 5) | no change | no change | 0.33 | 0.7 | inactive
SDHC (succinate dehydrogenase complex subunit C) | no change | no change | -0.15 | 0.76 | inactive
GPR35 (G protein-coupled receptor 35) | no change | no change | -2 | -0.06 | inactive
CTDNEP1 (CTD nuclear envelope phosphatase 1) | no change | no change | -0.07 | 1.97 | inactive
CGB8 (chorionic gonadotropin subunit beta 8) | no change | no change | -0.23 | -1.1 | inactive
GH1 (growth hormone 1) | no change | no change | 0.97 | -0.43 | inactive
FAIM2 (Fas apoptotic inhibitory molecule 2) | no change | no change | 0.12 | -0.48 | inactive
ADAM21 (ADAM metallopeptidase domain 21) | no change | no change | 0.3 | 0.95 | inactive
